Taken from: PubChem BioAssay AID504793 (Drosophila RNAi Screening Center, 2011)
The screen tested about 23,000 reagents; this is an unselected part of those with a known target gene and a result. Of all reagents, 62 (0.27%) were called active. 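Calls come from follow-up tests whose scores are not deposited, so confirmed genes may have low counts here; counts are not normalised per plate.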 Raw values vary from plate to plate and are shown uncorrected. A plus sign joins genes that one reagent is predicted to hit. Reagent sequences are not shown.

Screen: 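Whole-genome screen for parts of the DNA damage checkpoint at G2/M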 (primary screen)
Cell system: Drosophila S2R+ cells
Reagents: long dsRNA against Drosophila genes, about 0.25 µg dsRNA per well
Duration: 4 days of dsRNA, then 4 hours of drug before read-out
Challenge: doxorubicin 0.5 µM for 4 hours to cause double-strand breaks, in cells also given a low, harmless dose of dsRNA against nbs to sensitise the assay
Detection: 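Per-well count of mitotic cells stained for phospho-histone H3 after doxorubicin exposure, used as mitotic index; counts are raw and not normalised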
Scale: mitotic cells: higher = more cells in mitosis, weaker G2 arrest
Hit rule: 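a call needs confirmation in secondary tests, with other dsRNAs and a check of mitotic timing without damage, not just a high primary count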
Meaning of the calls: active = confirmed in follow-up tests; inactive = not confirmed

Which result is listed for CG4598 [DRSC02763]?
mitotic cells, replicate 1: 6; Call: inactive

With CG31635 [DRSC02273], what does the deposit list?
mitotic cells, replicate 1: 8; Call: inactive

For CG12480 [DRSC19460], what does the deposit list?
mitotic cells, replicate 1: 15; Call: inactive

For CG12480 [DRSC27987], how do the results read?
mitotic cells, replicate 1: 7; Call: inactive

How did the screen score ppk31 (pickpocket 31) [DRSC13811]?
mitotic cells, replicate 1: 19; Call: inactive

With ppk31 (pickpocket 31) [DRSC25391], what does the deposit list?
mitotic cells, replicate 1: 9; Call: inactive

For Psf3 (Partner of Sld Five 3) [DRSC18216], how do the results read?
mitotic cells, replicate 1: 5; Call: inactive

How did the screen score Psf3 (Partner of Sld Five 3) [DRSC21487]?
mitotic cells, replicate 1: 13; Call: inactive

How did the screen score meru [DRSC09400]?
mitotic cells, replicate 1: 17; Call: inactive

For meru [DRSC10215], how do the results read?
mitotic cells, replicate 1: 2; Call: inactive

Reprinted from the listing (4 entries):
ppk31 (pickpocket 31) [DRSC25391]: mitotic cells, replicate 1 = 9; Call = inactive
Psf3 (Partner of Sld Five 3) [DRSC18216]: mitotic cells, replicate 1 = 5; Call = inactive
Psf3 (Partner of Sld Five 3) [DRSC21487]: mitotic cells, replicate 1 = 13; Call = inactive
meru [DRSC09400]: mitotic cells, replicate 1 = 17; Call = inactive

More results:
With Dek [DRSC07418], how do the results read?
mitotic cells, replicate 1: 6; Call: inactive

How did the screen score Dek [DRSC23928]?
mitotic cells, replicate 1: 9; Call: inactive

Which result is listed for COX8 (Cytochrome c oxidase subunit 8) [DRSC11814]?
mitotic cells, replicate 1: 9; Call: inactive

How did the screen score COX8 (Cytochrome c oxidase subunit 8) [DRSC28975]?
mitotic cells, replicate 1: 4; Call: inactive

With Pcf11 (Pcf11 cleavage and polyadenylation factor subunit) [DRSC23350], what was measured?
mitotic cells, replicate 1: 4; Call: inactive

What is on record for Gp93 (Glycoprotein 93) [DRSC15827]?
mitotic cells, replicate 1: 3; Call: inactive

What is on record for Gp93 (Glycoprotein 93) [DRSC27798]?
mitotic cells, replicate 1: 8; Call: inactive

With CG4456 + Hsp22 [DRSC11187], what does the deposit list?
mitotic cells, replicate 1: 5; Call: inactive

With CG4456 + Hsp22 [DRSC11192], what does the deposit list?
mitotic cells, replicate 1: 4; Call: inactive

How did the screen score CG4596 [DRSC15608]?
mitotic cells, replicate 1: 5; Call: inactive

What is on record for CG4596 [DRSC25914]?
mitotic cells, replicate 1: 5; Call: inactive

For CG15528 [DRSC15065], what was measured?
mitotic cells, replicate 1: 6; Call: inactive

For CG8001 [DRSC08611], what was measured?
mitotic cells, replicate 1: 8; Call: inactive
